Binding data for 1 molecule are collected here from article doi:10.1101/532275.

The target in the test is GFP-NbATG8f (GFP as an N-terminal fusion, pGWB6-NbATG8f) (N. benthamiana). Kind of test: co-IP.

These are yes or no findings as the source states them, for the method shown. In cells and extracts the contact can be indirect. Where a sequence is shown, tags or fusion partners need not be part of it.

B1: GUSp-Myc (1-166 aa of GUS, C-terminal Myc tag) (domain or fragment, UniProt P05804 1-166)
chain: MLRPVETPTREIKKLDGLWAFSLDRENCGIDQRWWESALQESRAIAVPGSFNDQFADADIRNYAGNVWYQREVFIPKGWAGQRIVLRFDAVTHYGKVWVNNQEVMEHQGGYTPFEADVTPYVIAGKSVRITVCVNNELNWQTIPPGMVITDENGKKKQSYFHDFFN
On to B1, for which the binding result is recorded as “no binding”.
